Measurements reported in PubChem BioAssay AID1259314 (Drosophila RNAi Screening Center, 2017)
Here is one part, drawn at random, of about 3,100 reagents. Over the whole deposit, 289 (9.3%) are marked active. 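Active includes both higher and lower ATP than plate average; check the z-score sign for direction.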 Unmarked entries are inactive. Names joined by + are all predicted targets of the reagent. Not given: the amount of reagent.

- Assay: 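Modifiers of manganese chloride toxicity in fly cells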 (primary screen)
- System: Drosophila S2R+ cells
- Reagents: long dsRNA against Drosophila genes
- Time to read-out: 5 days (4 days knock-down, then 1 day metal exposure)
- Conditions: manganese chloride added to 15 mM for 24 hours
- Measurement: 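Cellular ATP measured by luciferase light, scaled to the plate mean, averaged across replicates and z-scored over plates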
- Scale: mean ATP z-score: higher = more ATP than the plate average, more viable cells under manganese
- Hit rule: 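Called active when the mean ATP z-score is above 1.5 or below -1.5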
- Meaning of the calls: active = strong ATP change, up or down; inactive = no strong ATP change

gene	dsRNA	mean ATP z-score
CCKLR-17D1	DRSC20011	0.554
CCKLR-17D1	DRSC20012	0.09
CCKLR-17D1	DRSC28081	0.197
CG14606	DRSC12550	0.318
stnA + stnB	DRSC20969	0.378
stnA + stnB	DRSC21112	-0.0513
stnA + stnB	DRSC21113	-0.445
CG8034	DRSC29895	0.392
CG6356	DRSC16026	-0.194
CG6356	DRSC39846	-0.34
MFS16	DRSC04051	0.532
MFS16	DRSC26536	-0.404
CG42594	DRSC18408	0.717
CG42594	DRSC28979	-0.978
Nup107	DRSC01999	-1.09
Mct1	DRSC18681	0.29
Mct1	DRSC29006	0.446
CG8086	DRSC03078	-0.678
CG8086	DRSC03079	0.34
CG8086	DRSC27677	0.795
Tmtc2	DRSC24987	1.45

Next part; the last 3 above are carried over.
gene	dsRNA	mean ATP z-score
CG8086	DRSC03079	0.34
CG8086	DRSC27677	0.795
Tmtc2	DRSC24987	1.45
Cln3	DRSC10520	-0.762
Cln3	DRSC27270	0.713
sut1	DRSC07700	-0.208
CG7882	DRSC04899	-0.125
shakB	DRSC20585	-0.166
shakB	DRSC22817	-0.153
shakB	DRSC26262	0.285
CG9308	DRSC04539	-0.783
CG9308	DRSC28962	-0.352
Ptpmeg2	DRSC18277	-0.338
Ptpmeg2	DRSC23303	-0.864
Ptpmeg2	DRSC26646	-0.18
PGRP-SC1b	DRSC07215	0.243
ppk	DRSC03595	-0.457
ppk	DRSC25361	-0.713
CG1907	DRSC15399	1.33
Cralbp + PGRP-LD + Pmi	DRSC09743	-1.15
Tsp86D	DRSC15607	3.14 (active)
kumpel	DRSC14883	0.813
kumpel	DRSC16459	2.76 (active)
kumpel	DRSC16460	0.771
kumpel	DRSC16461	0.504
kumpel	DRSC16462	-0.0823
kumpel	DRSC16463	0.307
kumpel	DRSC25593	2.59 (active)
kumpel	DRSC27664	-0.126
kumpel	DRSC39430	0.00373
kumpel	DRSC39876	3.42 (active)
